Results published in patent US20240165085A1, “ORAL FELINE FEED AND METHODS FOR CONTROLLING TICK INFESTATIONS IN A FELINE” (priority 2021, published 2024).
Some entries share one result that the patent states for a list of compounds.

System: Dermacentor variabilis
Experiment: Example 3: efficacy of afoxolaner and fluralaner liquid formulations per os in cats against Dermacentor variabilis
Type: in vivo
Settings: treatment group 3, 0.225 mg/kg daily (Days 0-29), liquid formulation; by day 7
Source text: Efficacy of Various Formulations of Isoxazoline Administered per os, i.e. by mouth, to Cats for the Treatment and Control of Dermacentor variabilis.
Methods: A pool of 36 cats are to be preliminarily infested with ˜50 unfed adult D. variabilis ticks in order to produce cats that can suitably sustain a reliable infestation rate, defined as approximately 25% of attached ticks being live at the end of a 48-hour period. The 30 cats with the highest live attached tick counts are to be selected for inclusion in the study. The cats are to be randomly assigned to a single control group and 4 treatment groups with 6 cats per treatment group.
The cats are to be housed individually during the study period and are to be fed a commercial dry cat food ration with ad libitum access to water.
Each cat in a treatment group (test groups 2-5) is to receive by mouth, preferably in combination with feed, a liquid formulation of isoxazoline. The dosage is to be administered to the cats on each of days 0-29 according to TABLE 2.
Cats in the control group are not to receive isoxazoline or any other tick control treatment. Each cat in the treatment group is to be offered its daily ration (dry food) and the individual doses of liquid formulation are to be administered after the individual cat has eaten at least 25% of its total daily ration. […]

Structure (SMILES): O=C(CNC(=O)c1ccc(C2=NOC(c3cc(Cl)cc(C(F)(F)F)c3)(C(F)(F)F)C2)c2ccccc12)NCC(F)(F)F (stereo not shown) [Afoxolaner, 4-{5-[3-chloro-5-(trifluoromethyl)phenyl]-5-(trifluoromethyl)-4,5-dihydroisoxazol-3-yl}-N-{2-oxo-2-[(2,2,2-trifluoroethyl)amino]ethyl}naphthalene-1-carboxamide]
- efficacy: greater than 95%
